Data as given in US20250281585A1.
No constants are given. Whether binding was seen depends on the method and setting. Some entries that bind do so weakly or less than the wild type. Tags and fused reporters may be left off the sequences shown.

Biological target: T1, recombinant mouse IL-1RI Fc chimera (R&D 771-MR-100) (mouse) (UniProt P13504)
T1 sequence (looked up): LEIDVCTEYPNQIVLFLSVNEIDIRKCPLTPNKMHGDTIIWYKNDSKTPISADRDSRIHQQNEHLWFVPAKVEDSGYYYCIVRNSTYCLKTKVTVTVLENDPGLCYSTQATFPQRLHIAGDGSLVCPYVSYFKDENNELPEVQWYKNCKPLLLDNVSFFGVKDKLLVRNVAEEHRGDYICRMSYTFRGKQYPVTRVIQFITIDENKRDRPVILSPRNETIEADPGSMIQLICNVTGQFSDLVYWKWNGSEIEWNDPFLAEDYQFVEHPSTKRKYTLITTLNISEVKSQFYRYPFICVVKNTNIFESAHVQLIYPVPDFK
Experiment: ELISA on coated mouse IL-1RI Fc chimera, biotinylated anti-fIL-1β detection antibody

binding: binds
B1: commercially available recombinant feline IL-1β protein (R&D Systems 1796-FL-010) (ligand, UniProt P41687 116-267, looked up)
chain: AAIQSQDYTFRDISQKSLVLSGSYELRALHLNGQNMNQQVVFRMSFVHGEENSKKIPVVLCIKKNNLYLSCVMKDGKPTLQLEMLDPKVYPKKKMEKRFVFNKTEIKGNVEFESSQFPNWYISTSQAEEMPVFLGNTKGGQDITDFIMESAS
